Data reported in the supplement of paper PMC8104966.
The other results are listed elsewhere or left out. Repeats in this data set agree poorly, so a single value says little.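 U2OS cells expressing ACE2 were combined with U2OS cells expressing full-length spike, and imaging quantified fusion as the fraction of nuclei displaying both cell types' fluorescent markers. Non-toxic compounds with a fusion z-score under -3, i.e., over three standard deviations below the plate's DMSO wells, are called inhibitory hits.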

test system: U2OS ACE2 x SARS-CoV-2 spike co-culture; assay: cell-cell fusion (fraction fused) z-score vs plate DMSO control; higher = more fusion; settings: 30 µM; 5 h; toxicity class: non-toxic, passed QC

Row | SMILES | cell-cell fusion (z-score)
1 | CCc1c(C)[nH]c2c1C(=O)C(CN1CCOCC1)CC2.Cl (centres undefined) [Molindone hydrochloride] | inactive: 3.68
2 | CCc1c(C)[nH]c2c1C(=O)C(CN1CCOCC1)CC2.Cl (centres undefined) | inactive: 0.333
3 | CC(C)NP(=O)(NC(C)C)OP(=O)(NC(C)C)NC(C)C [Tetraisopropyl pyrophosphoramide] | inactive: 1.65
4 | COc1cc2nccc(Oc3ccc(NC(=O)C4(C(=O)Nc5ccc(F)cc5)CC4)cc3)c2cc1OC.Cl | active: -3.67
5 | COC1=C[C@]23CCCN2CCc2cc4c(cc2[C@@H]3[C@@H]1O)OCO4 [Cephalotaxine] | inactive: 0.877
6 | CCC[C@H](NC(=O)[C@@H]1[C@H]2CCC[C@H]2CN1C(=O)[C@@H](NC(=O)[C@@H](NC(=O)c1cnccn1)C1CCCCC1)C(C)(C)C)C(=O)C(=O)NC1CC1 [Telaprevir] | inactive: 2.09
7 | CCCCCCCCCCCCCCCCCCOCC(O)CO (centres undefined) | inactive: 1.73
8 | C[C@@H]1C[C@H]2[C@@H]3CCC4=CC(=O)C=C[C@]4(C)[C@@]3(F)[C@@H](O)C[C@]2(C)[C@@]1(O)C(=O)COP(=O)([O-])[O-].[Na+].[Na+] [Dexamethasone Sodium Phosphate] | inactive: 2.09
9 | Cl.O=C1CN2Cc3c(ccc(Cl)c3Cl)N=C2N1 [Anagrelide HCl] | inactive: 1.58
10 | CS(=O)(=O)c1cccc(CNc2nc(Nc3ccc4c(c3)CCC(=O)N4)ncc2C(F)(F)F)c1 | inactive: -0.637
11 | CCOC(=O)Nc1nc2ccccc2[nH]1 | inactive: 4.01
12 | COCC1=C(C(=O)OC(C)OC(=O)OC(C)C)N2C(=O)[C@@H](NC(=O)/C(=N/OC)c3csc(N)n3)[C@H]2SC1 (some centres undefined) | inactive: 2.72
13 | c1ccc(-c2ccc(C(c3ccccc3)n3ccnc3)cc2)cc1 (centres undefined) | inactive: -1.55
14 | Cl.NCc1ccc(S(N)(=O)=O)cc1 [Mafenide hydrochloride] | inactive: 2.9
15 | NC(=O)C1CCCN1C(=O)C(Cc1c[nH]cn1)NC(=O)C1CCC(=O)N1 (centres undefined) | inactive: 1.46
16 | Cc1cccc(C)c1OCC(C)N.Cl (centres undefined) [Mexiletine hydrochloride] | inactive: 2.16
17 | Br.CN1Cc2sccc2C(c2ccc(O)c(O)c2)C1 (centres undefined) | inactive: 0.578
18 | Cn1c(=O)c2[nH]c(C3CCCC3)nc2n(C)c1=O [8-Cyclopentyl-1,3-dimethylxanthine] | inactive: 3.78
19 | Cl.Cl.Fc1ccc(C(c2ccc(F)cc2)N2CCN(C/C=C/c3ccccc3)CC2)cc1 [Flunarizine dihydrochloride] | inactive: 4.19
20 | Cl.Cl.Fc1ccc(C(c2ccc(F)cc2)N2CCN(C/C=C/c3ccccc3)CC2)cc1 | inactive: 2.91
21 | COc1cc2c(cc1OC)[C@@]13CCN4CC5=CCOC6CC(=O)N2C1[C@H]6[C@H]5C[C@H]43 (some centres undefined) | inactive: 2.58
22 | Cc1onc(-c2ccccc2Cl)c1C(=O)N[C@@H]1C(=O)N2[C@@H]1SC(C)(C)[C@@H]2C(=O)[O-].O.[Na+] [Cloxacillin sodium monohydrate] | inactive: 2.59
23 | CC(C)(C=O)Cc1cc(C(C)(C)C)c(O)c(C(C)(C)C)c1 | inactive: 2.62

An excerpt of these results, with each value named:
CCOC(=O)Nc1nc2ccccc2[nH]1
  cell-cell fusion (z-score): inactive: 4.01
COCC1=C(C(=O)OC(C)OC(=O)OC(C)C)N2C(=O)[C@@H](NC(=O)/C(=N/OC)c3csc(N)n3)[C@H]2SC1 (some centres undefined)
  cell-cell fusion (z-score): inactive: 2.72

(list continues)

Row | SMILES | cell-cell fusion (z-score)
24 | O=c1ncn2nc(Sc3ccc(F)cc3F)ccc2c1-c1c(Cl)cccc1Cl | inactive: 2.27
25 | CCCC(C(=O)OCCN(CC)CC)(c1ccccc1)c1ccccc1.Cl | inactive: 2.93
26 | CCCC(C(=O)OCCN(CC)CC)(c1ccccc1)c1ccccc1.Cl [SKF-525A hydrochloride] | inactive: 3.8
27 | NC1(C(=O)O)CCC1 | inactive: 4.15
28 | CC(C)C[C@H](NC(=O)[C@H](Cc1ccccc1)NC(=O)c1cnccn1)B(O)O [Bortezomib] | inactive: 5.51
29 | Cn1c(=O)c2c(ncn2CCO)n(C)c1=O | inactive: 3.81
30 | C[CH2][Hg][S]c1ccccc1C(=O)[O-].[Na+] | inactive: 1.56
31 | CC(C)(C)C(=O)OCOP(=O)(COCCn1cnc2c(N)ncnc21)OCOC(=O)C(C)(C)C [Adefovir dipivoxil] | inactive: 0.862
32 | NC(=O)C(=O)[O-].[Na+] [Sodium Oxamate] | inactive: 2.89
33 | COC(=O)C1=C(C)NC(C)=C(C(=O)OC2CCCN(Cc3ccccc3)C2)C1c1cccc([N+](=O)[O-])c1.Cl (centres undefined) [Benidipine hydrochloride] | inactive: 2.04
34 | CN1C(=O)CC[C@H]1c1cccnc1 [(-)-Cotinine] | inactive: 0.719
35 | COc1cc(OC)c2c(OC)c(-c3ccc4c(c3)OCO4)c(=O)oc2c1 | inactive: 1.84
36 | NC(=O)c1ccc[n+]([C@@H]2O[C@H](COP(=O)([O-])OP(=O)(O)OC[C@H]3O[C@@H](n4cnc5c(N)ncnc54)[C@H](O)[C@@H]3O)[C@@H](O)[C@H]2O)c1 | inactive: 0.657
37 | CC[C@@]1(O)C[C@H](O[C@H]2C[C@H](N(C)C)[C@H](O)[C@H](C)O2)c2c(cc3c(c2O)C(=O)c2c(O)cccc2C3=O)[C@H]1C(=O)OC.Cl | inactive: 4.44
38 | CN1CCc2nc(C(=O)N[C@@H]3C[C@@H](C(=O)N(C)C)CC[C@@H]3NC(=O)C(=O)Nc3ccc(Cl)cn3)sc2C1.Cc1ccc(S(=O)(=O)O)cc1.O [Edoxaban Tosylate Monohydrate] | inactive: 1.69
39 | Clc1ccc2c(c1)C(N1CCNCC1)=Nc1ccccc1O2 [Amoxapine] | inactive: -1.97
40 | CNC(=O)c1cc(Oc2ccc(NC(=O)Nc3ccc(Cl)c(C(F)(F)F)c3)c(F)c2)ccn1 [Regorafenib] | active: -3.64
41 | CC(=O)O[C@@H]1CC2C(C)(C)C(=O)C3OC3[C@]2(C)C2CC[C@@]3(C)[C@H](c4ccoc4)OC(=O)C4OC43[C@@]21C (some centres undefined) | inactive: 2.54
42 | OC[C@@H](O)[C@@H](O)[C@@H](O)CO | inactive: 1.97
43 | CCN[C@H]1CN(CCCOC)S(=O)(=O)c2sc(S(N)(=O)=O)cc21 [Brinzolamide] | inactive: 1.37
44 | CC(=O)Oc1cc(-c2coc3cc(OC(C)=O)c(OC(C)=O)c(OC(C)=O)c3c2=O)cc(OC(C)=O)c1OC(C)=O | inactive: 4.13
45 | CCN(CC)CC(=O)Nc1c(C)cccc1C.Cl [Lidocaine hydrochloride] | inactive: 2.81
46 | NCCO.NC[C@H]1CC[C@H](C(=O)O)CC1 | inactive: 1.66

Row | SMILES | cell-cell fusion (z-score)
47 | O=C(O)c1cc(O)c2c(Cl)cc(Cl)cc2n1 [5,7-Dichlorokynurenic acid] | inactive: 2.28
48 | CCC(C)C(NC)C(=O)O (centres undefined) | inactive: 1.93
49 | CC(C)C[C@H](NC(=O)[C@H](Cc1ccccc1)NC(=O)c1cnccn1)B(O)O [Bortezomib (Velcade)] | inactive: 2.34
50 | CCN(CC)CCOc1ccc(/C(=C(\Cl)c2ccccc2)c2ccccc2)cc1.O=C(O)CC(O)(CC(=O)O)C(=O)O | inactive: -0.0935
51 | N[C@@H](Cc1cc(I)c(Oc2ccc(O)c(I)c2)c(I)c1)C(=O)[O-].[Na+] [Liothyronine sodium] | inactive: 0.825
52 | CCCCCCCCCCC(C)(C)C(=O)Nc1c(OC)cc(OC)cc1OC | inactive: 3.48
53 | CC(=O)O[C@H]1C(=O)[C@@]2(C)[C@H]([C@H](OC(=O)c3ccccc3)[C@]3(O)C[C@H](OC(=O)[C@H](O)[C@@H](NC(=O)c4ccccc4)c4ccccc4)C(C)=C1C3(C)C)[C@]1(OC(C)=O)CO[C@@H]1C[C@@H]2O [Paclitaxel] | inactive: -0.838
54 | COc1ccc(-c2coc3cc(OC)cc(OC)c3c2=O)cc1 | inactive: 1.13
55 | C#CCN(C)CCCOc1ccc(Cl)cc1Cl.Cl | inactive: 1.04
56 | CN(NC(=O)CC(=O)NN(C)C(=S)c1ccccc1)C(=S)c1ccccc1 [Elesclomol] | inactive: 1.38
57 | COP(=S)(OC)Oc1ccc(SC)c(C)c1 | inactive: 2.5
58 | CCN(CC)CC(=O)Nc1c(C)cccc1C.Cl.O [Lidocaine Hydrochloride hydrate] | inactive: 2.72
59 | Oc1cc(-c2ccccc2)nc2nc(Cl)ccc12 [7-Chloro-4-hydroxy-2-phenyl-1,8-naphthyridine] | inactive: 1.39
60 | Cc1ccccc1C(OCCN(C)C)c1ccccc1.O=C(O)CC(O)(CC(=O)O)C(=O)O (centres undefined) | inactive: 1.99
61 | CC(CCc1ccccc1)NCC(O)c1ccc(O)c(C(N)=O)c1.Cl (centres undefined) [Labetalol hydrochloride] | inactive: 1.69
62 | COc1c(C)c2c(c(O)c1C/C=C(\C)CCC(=O)OCCN1CCOCC1)C(=O)OC2 [Mycophenolate Mofetil] | inactive: 0.917
63 | COC1=CC(=O)OC(/C=C/c2ccccc2)C1 (centres undefined) | inactive: 2.24
64 | CCOc1ccc2nc(S(N)(=O)=O)sc2c1 | inactive: 1.2
65 | N#Cc1c(Oc2ccc(F)c(NC(=O)Cc3cccc(C(F)(F)F)c3)c2)ccc2nc(NC(=O)C3CC3)sc12 | inactive: 1.72
66 | CCCCc1oc2ccccc2c1C(=O)c1cc(I)c(OCCN(CC)CC)c(I)c1.Cl [Amiodarone hydrochloride] | inactive: -1.55
67 | COc1ccc(C(=O)c2ccc(O)cc2)c(O)c1O | inactive: 1.72
68 | CCc1ccc(CCOc2ccc(CC3SC(=O)NC3=O)cc2)nc1 (centres undefined) [Pioglitazone] | inactive: 2.46
69 | CC(=O)Nc1cc([As](=O)(O)O)ccc1O | inactive: 2.81

Pulled one by one from above (three):
Row | SMILES | cell-cell fusion (z-score)
61 | CC(CCc1ccccc1)NCC(O)c1ccc(O)c(C(N)=O)c1.Cl (centres undefined) [Labetalol hydrochloride] | inactive: 1.69
60 | Cc1ccccc1C(OCCN(C)C)c1ccccc1.O=C(O)CC(O)(CC(=O)O)C(=O)O (centres undefined) | inactive: 1.99
56 | CN(NC(=O)CC(=O)NN(C)C(=S)c1ccccc1)C(=S)c1ccccc1 [Elesclomol] | inactive: 1.38
